Assay results reported in paper PMC7819943, “Rice protein-binding microarrays: a tool to detect cis-acting elements near promoter regions in rice”.
The list shows a part of the results.

target: T1, OsSMF1 (Oryza sativa, UniProt Q6ZLB0 1-436); experiment: protein-binding microarray (RPBM); PBS, 2% BSA, 51.3 ng/ul salmon testes DNA, 50 uM zinc acetate, 200 nM TF, 25 C, 1 h; high values mean tight binding; conditions: protein: recombinant; tags: N-terminal polyhistidine and DsRed monomer fusion (pET32a); chain copies: 2; label: CyDye5-dUTP incorporated in the synthesized complementary strand; 3' TTTTT single-stranded linker to array surface; dsDNA, one strand shown
T1 sequence: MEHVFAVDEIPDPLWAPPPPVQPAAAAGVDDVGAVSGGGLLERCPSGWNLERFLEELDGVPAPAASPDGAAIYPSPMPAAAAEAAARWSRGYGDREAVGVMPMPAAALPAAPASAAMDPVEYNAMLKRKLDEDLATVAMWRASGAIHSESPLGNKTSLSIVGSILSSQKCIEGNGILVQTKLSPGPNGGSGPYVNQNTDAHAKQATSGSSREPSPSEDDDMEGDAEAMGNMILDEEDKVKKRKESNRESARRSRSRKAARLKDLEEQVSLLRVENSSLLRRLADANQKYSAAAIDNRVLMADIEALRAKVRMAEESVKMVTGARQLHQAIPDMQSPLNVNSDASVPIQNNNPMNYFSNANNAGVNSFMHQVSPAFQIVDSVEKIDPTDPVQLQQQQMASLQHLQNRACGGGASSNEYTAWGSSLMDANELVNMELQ
How it was run: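 Transcription factors, each fused N-terminally to a polyhistidine tag and DsRed, were expressed in E. coli BL21-CodonPlus and purified on Ni–NTA. A custom Agilent array was made double-stranded by primer extension with Cy5-dUTP and blocked with 2% BSA. It was incubated with 200 nM protein in PBS, 2% BSA, salmon testes DNA and 50 µM zinc acetate at 25 °C for 1 h, then washed. The binding signal is per-feature fluorescence intensity (arbitrary units) read on an Axon 4000B scanner.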

Sequence	binding signal
CGCGGCCGACGTGGACCACGTGGTGCGCGGACGCTCTGCGCGGAGTCACCTAGTGCAG	12600 fluorescence intensity (a.u.)
TTTGTGAGCTATAAATGTATCCATACATTGCTTTGCATCACGGAGTCACCTAGTGCAG	4330 fluorescence intensity (a.u.)
GTATTTCCATGGACATCAGCTTTGTATTACAGTCTATAGGCGGAGTCACCTAGTGCAG	3230 fluorescence intensity (a.u.)
TGAAATTCTGACCTCACTTCATGCGGCGGGAGGGCGGCTGCGGAGTCACCTAGTGCAG	4320 fluorescence intensity (a.u.)
GACGTTAGTGATCAGCTGGGTTAATTAATTACGTGGCTAACGGAGTCACCTAGTGCAG	7210 fluorescence intensity (a.u.)
ACACCATGCATTTAATTGGTGATAAAATCACATCCTTATCCGGAGTCACCTAGTGCAG	32800 fluorescence intensity (a.u.)
GTCGGCGATGTTCTTGCTGCCGGTGACGATGGATTTCTTGCGGAGTCACCTAGTGCAG	3390 fluorescence intensity (a.u.)
ACCAACGCTAAAACCGTTTCACCGTATCCTATATACCTATCGGAGTCACCTAGTGCAG	7820 fluorescence intensity (a.u.)
CCCAAATGACTATGTCATATCAATGAGGATGTGAATCAAACGGAGTCACCTAGTGCAG	16400 fluorescence intensity (a.u.)
CCGTCGCCCGAGAGCGAACGGCCGTCTGCCACGTCATTTTCGGAGTCACCTAGTGCAG	29200 fluorescence intensity (a.u.)
ACCTGGTAACTGAACACAGGATGGAAACTCTGAATAATGACGGAGTCACCTAGTGCAG	3250 fluorescence intensity (a.u.)
GTACATACTGGTGCCTTTTCTGATGTGTACGTATTCCGGTCGGAGTCACCTAGTGCAG	5350 fluorescence intensity (a.u.)
AACCGGTTTTGCGGTCAAAGGACGAAAATTAGACAGTCCGCGGAGTCACCTAGTGCAG	9300 fluorescence intensity (a.u.)
TATAATTTTGTCATAAATAAAATATTTTAAGCAATATCGTCGGAGTCACCTAGTGCAG	32000 fluorescence intensity (a.u.)
GATCCTCACAGGATCACGGTCGTGGCATTGCTGGTCCTTGCGGAGTCACCTAGTGCAG	3410 fluorescence intensity (a.u.)
CGCCGCGACGACGGCGGCGGCTGGCCATGGCGGCTCTGTTCGGAGTCACCTAGTGCAG	26500 fluorescence intensity (a.u.)
ATCCACGGCCTCCCTCTCTCTCTCTTTCTCGGCTCAGGCACGGAGTCACCTAGTGCAG	23300 fluorescence intensity (a.u.)
TCTATCACGAGATGTGATATATTCTTTCCTAGTACTACAACGGAGTCACCTAGTGCAG	3410 fluorescence intensity (a.u.)
CCTTCCTGCAGTCTAGTCACCTCTCAAGCTACATACTCCCCGGAGTCACCTAGTGCAG	3650 fluorescence intensity (a.u.)
CGATCCCCATCGCCATGGCCTTGGGTGGCGTGTCCATGGCCGGAGTCACCTAGTGCAG	4030 fluorescence intensity (a.u.)
TGGAGGGCAGTTTCGCTGACGTGGCGGTGTTGACCTAGTGCGGAGTCACCTAGTGCAG	34200 fluorescence intensity (a.u.)
AGTTTCAGACTTGTGCACTCGATTTTGTTCTAGGAACATACGGAGTCACCTAGTGCAG	33600 fluorescence intensity (a.u.)
AGGGGTGAAAGGTTTTGGCGTGTCACATTGGATATACGGGCGGAGTCACCTAGTGCAG	4170 fluorescence intensity (a.u.)
ACAATGTCCTTGTGCAATCTATATCGGTCATGACGTCGTGCGGAGTCACCTAGTGCAG	4600 fluorescence intensity (a.u.)
TCACGGATTAGATTCGTGTCACTTAAAATATCTTGTTTTGCGGAGTCACCTAGTGCAG	3580 fluorescence intensity (a.u.)
GGATGTTCGTGTATGCATGGCTAGATCAGGTTGTTAGCTTCGGAGTCACCTAGTGCAG	3530 fluorescence intensity (a.u.)
GATGTTACGCGTGTAATGGTGTGTGCGTGTATATACTTTGCGGAGTCACCTAGTGCAG	7330 fluorescence intensity (a.u.)

Sequence	binding signal
AATTTTATAACTCATCTGAAAACCGCGAGACGAATTTAAGCGGAGTCACCTAGTGCAG	12300 fluorescence intensity (a.u.)
GGTCGGTCGGTCGCGTCGCTCGGGCTTGGCTTGTTTGCGTCGGAGTCACCTAGTGCAG	23000 fluorescence intensity (a.u.)
TGCTCATATGGGTAGGTGTACACACGTGTTGTGATAGTGTCGGAGTCACCTAGTGCAG	3840 fluorescence intensity (a.u.)
ATCAAACATATCCTACATGTATTCATTCATAGCATGACGTCGGAGTCACCTAGTGCAG	12000 fluorescence intensity (a.u.)
CTGGGGCTACGCCGTCGCCACGACATTGCTGAGCTACGTCCGGAGTCACCTAGTGCAG	5540 fluorescence intensity (a.u.)
TCGTCGTGGTAGACGTACGCGAACCCGCCGTGCCGTGTCACGGAGTCACCTAGTGCAG	4520 fluorescence intensity (a.u.)
GGCTGCCGGTGAAGGGGCTGCGTCAGATGGCGGCACCACGCGGAGTCACCTAGTGCAG	3630 fluorescence intensity (a.u.)
CTACAGCAACAGCATCTAGTATATACGGCCACGTCCACCTCGGAGTCACCTAGTGCAG	5450 fluorescence intensity (a.u.)
GGTTGGAATATTCTAGTTGCATGGCGTCATTTCAGAATGTCGGAGTCACCTAGTGCAG	4890 fluorescence intensity (a.u.)
ATAAATATATATCATACATATACATATGTGTATATATACGCGGAGTCACCTAGTGCAG	26200 fluorescence intensity (a.u.)
TCGTCCGATCCCCTAGCGTGGCCACCGATCCGCCCGTCCCCGGAGTCACCTAGTGCAG	3230 fluorescence intensity (a.u.)
ATCCAAATTAATTGTTTTAAAATAGTTTTAAGAAGGATCTCGGAGTCACCTAGTGCAG	3430 fluorescence intensity (a.u.)
GCATCCAGAAAGAGCCACGTCATCCAAATAATCCTAACCGCGGAGTCACCTAGTGCAG	17900 fluorescence intensity (a.u.)
ATGATCTTTAATTATGTTCTGCGGTAGAGATGACAAACTTCGGAGTCACCTAGTGCAG	3760 fluorescence intensity (a.u.)
AGCGCGCGGCGGGCGCGCCCCACCGGCCTCCTCCCCTCCTCGGAGTCACCTAGTGCAG	13000 fluorescence intensity (a.u.)
GTTAAAACTATATGATTGTGTGAGTCAGCGCACTTTGCACCGGAGTCACCTAGTGCAG	8260 fluorescence intensity (a.u.)
AGAGTGTAAATTACACTAGGATGACACATACTCCCTCCGTCGGAGTCACCTAGTGCAG	3340 fluorescence intensity (a.u.)
TTGTAAGTCAGGCAGAGTAGATGATGCAATGCTTAATTTGCGGAGTCACCTAGTGCAG	3220 fluorescence intensity (a.u.)
CTGGAGGGAAAGGTCGGGCCCACGTAAGGGAACAAAACCACGGAGTCACCTAGTGCAG	3480 fluorescence intensity (a.u.)
GTAATACTGCTGGTGCAGTAGCAGACGCTGACACGTGGGTCGGAGTCACCTAGTGCAG	8980 fluorescence intensity (a.u.)
CCCCTCCGCTAGTAATCACCGACTCTCCCCATTGTGTCACCGGAGTCACCTAGTGCAG	3900 fluorescence intensity (a.u.)
GCGGGCGAGCCGTAGAGGATTAAAATGGTAAAGCCGCTAACGGAGTCACCTAGTGCAG	3490 fluorescence intensity (a.u.)
GAACACGATCAACTCGATCCATCTCTCTCTAGATCAGCTGCGGAGTCACCTAGTGCAG	3560 fluorescence intensity (a.u.)
GTTCCCAACCTCTGCCTCTCATGACTCATTTTCTGCGCGCCGGAGTCACCTAGTGCAG	8180 fluorescence intensity (a.u.)
CTGCCCTGAGCCCGCGCGCCGCCACCAGGGAGCCGCCGTCCGGAGTCACCTAGTGCAG	3640 fluorescence intensity (a.u.)
CTTAATACTGACACTGGATGCGTGTCAAATTGGAGTTCCACGGAGTCACCTAGTGCAG	3140 fluorescence intensity (a.u.)
AGAATTGTCTGTAGCTGCTTATGTGTACATCTAGCAAGCCCGGAGTCACCTAGTGCAG	8340 fluorescence intensity (a.u.)

As entered above.
binding signal with CTTAATACTGACACTGGATGCGTGTCAAATTGGAGTTCCACGGAGTCACCTAGTGCAG reads 3140 fluorescence intensity (a.u.)
binding signal with TCGTCCGATCCCCTAGCGTGGCCACCGATCCGCCCGTCCCCGGAGTCACCTAGTGCAG reads 3230 fluorescence intensity (a.u.)
binding signal with AGAATTGTCTGTAGCTGCTTATGTGTACATCTAGCAAGCCCGGAGTCACCTAGTGCAG reads 8340 fluorescence intensity (a.u.)
binding signal with CTGGGGCTACGCCGTCGCCACGACATTGCTGAGCTACGTCCGGAGTCACCTAGTGCAG reads 5540 fluorescence intensity (a.u.)
